From patent US20150086574A1 (CELLERANT THERAPEUTICS, published 2015)
Results are given in words; binding and its absence hold for the method and conditions named. Some entries that bind do so weakly or less than the wild type.

Protein sequences, listed by entry. Tags and fused reporters are not part of them. Lines headed by an entry give the natural chain unless they say otherwise; changes in a name come on top.
UniProt Q8TDQ0: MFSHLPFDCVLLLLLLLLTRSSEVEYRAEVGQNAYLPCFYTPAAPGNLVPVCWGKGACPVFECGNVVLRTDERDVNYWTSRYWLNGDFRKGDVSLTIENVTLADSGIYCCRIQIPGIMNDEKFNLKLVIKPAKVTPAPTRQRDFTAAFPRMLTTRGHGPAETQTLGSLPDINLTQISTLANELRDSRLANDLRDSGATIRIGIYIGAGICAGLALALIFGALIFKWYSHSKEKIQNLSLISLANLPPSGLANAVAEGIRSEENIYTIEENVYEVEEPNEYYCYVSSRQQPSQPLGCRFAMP

Tests used:
[1] = target: recombinant TIM3 protein (Homo sapiens (Human)) (UniProt Q8TDQ0); assay: ELISA screen of hybridomas
[2] = target: T cell Immunoglobulin- and Mucin domain-containing molecule 3 (TIM3), human, on cells (human) (UniProt Q8TDQ0); assay: flow cytometry, TIM3 expressing cell lines

B1: 6.14B9 (antibody, V domains shown)
VH: DVQLQESGPGLVKPSQSLSLTCTVTGYSITSDYAWNWIRQFPGNKLEWMGYISYSGSISYNPSLKSRISITRDTSKNQFFLQLNSVTTEDTATYYCARSGRLRRDFDYWGQGTTLT
VL: DIQMTQSPSSLSASLGERVSLTCRASQEISGYLSWLQQKPDGTIKRLIYAASTLDSGVPKRFSGSRSGSDYSLTISSLESEDFADYYCLQYASYPLTFGAGTKLELK
binding [1]: binds

B2: 7.10F6 (antibody, IgG1, V domains shown)
VH: EVQLVESGGGLVQPGGSLKLSCAASGFIFSGYGMSWVRQTPDKRLELVAIINSNGGSVDYPDSVKGRVTISRDNAKNTLYLQMSSLKSEDTAMYYCARIYYRCMDYWGQGTSVTVSS
VL: NIMMTQSPSSLAVSAGEKVTMSCKSSQSLLYSSNQKNYLAWYQQKPGQSPKLLIYWASARESGVPDRFTGGGSGTDFTLTISSVQAEDLAVYYCHQYLSSYTFGGGTKLEIKR
notes: also called 7.10F6.1; 7.10F6.1-pure
binding [1]: binds

B3: 27.12E12 (antibody, V domains shown)
VH: EVQLQQSGAELVRPGALVKLSCKASGFNIKDYYMYWMKQRPEQGLEWIGWIDPENVKTIYDPKFQGRATLTADTSSNTAYLQLSSLTSEDTAVYYCTRDFGYVGFFDVWGAGTTVTVSS
VL: DIVMTQSQKFMSTSVGDRVSVNCKASQNVGTNVVWYQQKPGQSPKALIYSASYRYSGVPDRFTGSGSGTDFTLTISTVQSEDLAEYFCQQYNSYPLTFGGGTKLEIKR
binding [1]: binds

B4: 27.2H4 (antibody, IgG1, V domains shown)
VH: EVQLQQSGAELVRPGALVKLSCKASGFNIKHYYIHWVNQRPEQGLEWIGWIDPETGNTIYDPKFQGKASITADTSSSTAYLQLNSLTSEDTAVYCCARGWSYAMDYWGQGTSVIVSS
VL: DIVMTQSHKFMSTSVGDRVSITCKASQDVNTAVAWYQQKPGHSPKLLIYSASYHYTGVPDRFTGSGSGTDFTFTISSVQAEDLAVYYCQQHYSTPWTFGGGTKLEIK
notes: also called 27.2H4 (D2.1)
binding [1]: binds

B5: 33.1G12 (antibody, IgG1, V domains shown)
VH: EVQLQQSGPELVKPGASVKISCKASGYSFTGYLMNWVMQSHGKSLEWIGRINPYNGDIFYNQKFKDKATLTVDKSSSTAHMELRSLASEDSAVYYCARRDENFDYDNAMDYWGQGTSVTL
VL: DIVLTQSPASLAVSLGQRATISCRASESVDIYGNSFMHWYQQKPGQPPKLLIYRASNLESGIPARFRGSGSRTDFTLTIYPVEADDVATYYCQQSNEDPWTFGGGTKLEIK
notes: the printed VH ends early (…GQGTSVT)
binding [1]: binds

B6: 33.2A5 (antibody, IgG1, V domains shown)
VH: QVQLQQSGAELAKPGVSVKMSCKASGYTSNYNWIHWIKQRPGQGLEWIGYINPATGYTDYNQKFRDKVTLTADKSSSTAYMQLSSLTSEDSALYYCTTGRNDEGGYALDSWGQGTSVTVSS
VL: GVVVTQSPTSLAVSLGQRATISCKASQSVDHAGDSYMNWYQQKAGQPPKLLIYGASYLESVIPGRFSGSGSGTDFTLNIHPVEEEDVATYFCQQSNEDPYTFG
binding [2]: binds | binding [1]: binds

B7: 1.7E10 (antibody, V domains shown)
VH: EVKLLESGGGLVQPGGSLKLSCAASGFDFSRYWMSWVRQAPGKGLEWIGEINPDSSTINYTPSLKDKFIISRDNAKNTLFLQMSKVRSEDTALYYCARPSYDGYYGYAMDYWGQGTSVTVSS
VL: DIVLTQSPASLAVSLGQRATISCRASESVDSYGKSFMHWYQQKPGQPPKLLIYRASNLESGIPARFSGSGSRTDFTLTINPVEADDVATYYCQQSNEDPYTFGGGTKLEIKR
binding [1]: binds
